Results are given in words; binding and its absence hold for the method and conditions named. Binding seen in cells or lysates may run through a third protein. Some entries that bind do so weakly or less than the wild type. Tags and fused reporters may be left off the sequences shown.
Tests used:
[1] = biological target: T1, Flag-tagged TRAF2-dR (lacking amino acids 34–73) (human) (UniProt Q12933); assay: co-IP; 293T cells transfected 24 h with Flag-tagged TRAFs or their truncations and HA-tagged TBK1, HA-tagged IKKε or HA-tagged MAVS; IP anti-Flag, Western blot
T1 sequence: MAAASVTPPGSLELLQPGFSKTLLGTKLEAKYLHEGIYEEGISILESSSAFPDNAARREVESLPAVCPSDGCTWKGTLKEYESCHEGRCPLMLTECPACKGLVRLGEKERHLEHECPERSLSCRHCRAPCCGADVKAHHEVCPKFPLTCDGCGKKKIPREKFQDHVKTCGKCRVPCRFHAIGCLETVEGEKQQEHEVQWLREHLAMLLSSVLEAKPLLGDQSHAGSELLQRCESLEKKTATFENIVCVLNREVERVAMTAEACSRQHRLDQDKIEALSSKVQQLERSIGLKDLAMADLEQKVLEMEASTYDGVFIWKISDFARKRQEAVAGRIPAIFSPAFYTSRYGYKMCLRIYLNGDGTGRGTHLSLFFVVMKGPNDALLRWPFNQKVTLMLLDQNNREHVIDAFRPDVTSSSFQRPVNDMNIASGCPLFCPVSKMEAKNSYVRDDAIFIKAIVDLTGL

Protein sequences, listed by entry. Tags and fused reporters are not part of them.
UniProt Q7Z434: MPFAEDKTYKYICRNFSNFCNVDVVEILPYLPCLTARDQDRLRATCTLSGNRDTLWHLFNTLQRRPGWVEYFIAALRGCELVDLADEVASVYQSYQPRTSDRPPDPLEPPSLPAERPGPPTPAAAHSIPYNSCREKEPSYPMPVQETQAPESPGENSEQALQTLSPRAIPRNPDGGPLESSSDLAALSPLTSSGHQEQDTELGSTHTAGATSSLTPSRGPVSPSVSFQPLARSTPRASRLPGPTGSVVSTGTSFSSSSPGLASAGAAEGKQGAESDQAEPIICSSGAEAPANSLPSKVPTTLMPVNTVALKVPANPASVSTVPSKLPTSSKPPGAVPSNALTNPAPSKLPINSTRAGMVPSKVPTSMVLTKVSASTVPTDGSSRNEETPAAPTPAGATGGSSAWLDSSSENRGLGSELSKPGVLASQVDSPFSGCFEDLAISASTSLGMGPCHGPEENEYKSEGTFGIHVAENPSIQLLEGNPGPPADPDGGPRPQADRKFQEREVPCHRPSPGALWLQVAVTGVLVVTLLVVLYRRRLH

[2] = biological target: T2, Flag-tagged TRAF3-d1 (lacking amino acids 1–249) (human) (UniProt Q13114); assay: as above
T2 sequence: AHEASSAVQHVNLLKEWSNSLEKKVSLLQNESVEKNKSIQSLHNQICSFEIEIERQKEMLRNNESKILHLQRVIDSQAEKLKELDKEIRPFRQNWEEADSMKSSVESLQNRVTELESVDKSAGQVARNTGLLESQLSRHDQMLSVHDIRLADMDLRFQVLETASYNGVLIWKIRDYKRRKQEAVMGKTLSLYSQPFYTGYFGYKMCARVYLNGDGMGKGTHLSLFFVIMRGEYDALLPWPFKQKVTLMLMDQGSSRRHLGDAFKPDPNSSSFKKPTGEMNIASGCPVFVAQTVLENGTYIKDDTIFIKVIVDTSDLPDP

[3] = biological target: T3, Flag-tagged TRAF3-dR (lacking amino acids 68–77) (human) (UniProt Q13114); assay: as above
T3 sequence: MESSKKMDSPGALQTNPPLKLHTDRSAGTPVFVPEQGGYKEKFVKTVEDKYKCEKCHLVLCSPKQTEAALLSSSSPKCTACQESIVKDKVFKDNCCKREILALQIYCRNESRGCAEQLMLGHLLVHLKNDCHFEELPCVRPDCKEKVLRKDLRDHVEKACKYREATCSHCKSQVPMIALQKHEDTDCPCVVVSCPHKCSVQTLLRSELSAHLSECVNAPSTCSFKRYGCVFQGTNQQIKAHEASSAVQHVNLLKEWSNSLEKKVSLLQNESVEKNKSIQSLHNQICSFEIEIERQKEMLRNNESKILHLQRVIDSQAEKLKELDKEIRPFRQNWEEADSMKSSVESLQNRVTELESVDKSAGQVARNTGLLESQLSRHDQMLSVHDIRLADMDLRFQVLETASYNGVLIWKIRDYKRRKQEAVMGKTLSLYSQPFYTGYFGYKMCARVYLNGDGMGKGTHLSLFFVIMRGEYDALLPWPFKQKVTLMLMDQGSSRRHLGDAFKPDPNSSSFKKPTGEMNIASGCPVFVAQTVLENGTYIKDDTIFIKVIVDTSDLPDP

[4] = biological target: T4, Flag-tagged TRAF2-dC (lacking amino acids 299–348) (human) (UniProt Q12933); assay: as above
T4 sequence: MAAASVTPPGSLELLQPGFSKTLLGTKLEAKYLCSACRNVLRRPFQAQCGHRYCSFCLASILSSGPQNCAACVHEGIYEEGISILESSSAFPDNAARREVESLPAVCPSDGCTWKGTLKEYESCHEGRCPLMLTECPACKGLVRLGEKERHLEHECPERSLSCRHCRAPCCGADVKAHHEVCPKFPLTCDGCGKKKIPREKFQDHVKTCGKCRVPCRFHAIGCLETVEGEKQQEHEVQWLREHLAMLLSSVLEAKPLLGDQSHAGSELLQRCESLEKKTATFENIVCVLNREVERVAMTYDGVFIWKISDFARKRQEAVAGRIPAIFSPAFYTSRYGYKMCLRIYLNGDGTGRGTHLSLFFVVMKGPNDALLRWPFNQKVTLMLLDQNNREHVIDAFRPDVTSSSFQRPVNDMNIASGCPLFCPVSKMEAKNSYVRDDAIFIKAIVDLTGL

[5] = biological target: T5, Flag-tagged TRAF6-dC (lacking amino acids 288–348) (human) (UniProt Q9Y4K3); assay: as above
T5 sequence: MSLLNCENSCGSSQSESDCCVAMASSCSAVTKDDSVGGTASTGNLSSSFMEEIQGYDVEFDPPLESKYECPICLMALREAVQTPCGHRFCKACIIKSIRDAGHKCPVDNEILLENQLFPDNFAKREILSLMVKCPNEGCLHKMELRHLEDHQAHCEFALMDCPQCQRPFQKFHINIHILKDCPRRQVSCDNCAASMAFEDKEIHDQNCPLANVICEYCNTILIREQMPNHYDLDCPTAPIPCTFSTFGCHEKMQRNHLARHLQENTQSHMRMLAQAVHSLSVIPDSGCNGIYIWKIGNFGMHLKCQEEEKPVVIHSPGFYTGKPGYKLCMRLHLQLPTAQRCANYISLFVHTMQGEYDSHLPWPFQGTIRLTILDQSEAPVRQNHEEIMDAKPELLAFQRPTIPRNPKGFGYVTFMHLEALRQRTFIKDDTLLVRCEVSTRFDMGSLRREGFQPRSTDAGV

[6] = biological target: T6, Flag-tagged TRAF6-d1 (lacking amino acids 1–259) (human) (UniProt Q9Y4K3); assay: as above
T6 sequence: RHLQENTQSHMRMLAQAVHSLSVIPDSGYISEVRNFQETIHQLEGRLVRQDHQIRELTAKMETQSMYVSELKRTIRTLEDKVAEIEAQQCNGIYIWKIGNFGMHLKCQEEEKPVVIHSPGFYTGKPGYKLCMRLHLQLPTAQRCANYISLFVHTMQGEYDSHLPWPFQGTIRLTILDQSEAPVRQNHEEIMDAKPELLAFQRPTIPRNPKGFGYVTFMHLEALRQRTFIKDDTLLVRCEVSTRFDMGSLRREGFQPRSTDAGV

[7] = biological target: T7, Flag-tagged TRAF3-dC (lacking amino acids 267–338) (human) (UniProt Q13114); assay: as above
T7 sequence: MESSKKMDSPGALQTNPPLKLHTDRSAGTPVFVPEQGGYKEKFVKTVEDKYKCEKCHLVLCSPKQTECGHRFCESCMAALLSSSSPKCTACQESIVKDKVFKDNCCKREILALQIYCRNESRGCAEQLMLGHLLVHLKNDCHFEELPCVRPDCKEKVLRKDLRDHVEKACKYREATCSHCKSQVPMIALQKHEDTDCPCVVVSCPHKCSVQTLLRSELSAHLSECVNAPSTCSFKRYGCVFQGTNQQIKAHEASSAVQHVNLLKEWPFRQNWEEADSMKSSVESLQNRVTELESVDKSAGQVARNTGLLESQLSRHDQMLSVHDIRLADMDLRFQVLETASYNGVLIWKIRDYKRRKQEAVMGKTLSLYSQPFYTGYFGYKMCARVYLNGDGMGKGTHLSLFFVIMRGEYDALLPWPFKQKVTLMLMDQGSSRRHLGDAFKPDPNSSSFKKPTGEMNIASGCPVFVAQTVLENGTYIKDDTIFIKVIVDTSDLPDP

[8] = biological target: T8, Flag-tagged TRAF6-dR (lacking amino acids 70–109) (human) (UniProt Q9Y4K3); assay: as above
T8 sequence: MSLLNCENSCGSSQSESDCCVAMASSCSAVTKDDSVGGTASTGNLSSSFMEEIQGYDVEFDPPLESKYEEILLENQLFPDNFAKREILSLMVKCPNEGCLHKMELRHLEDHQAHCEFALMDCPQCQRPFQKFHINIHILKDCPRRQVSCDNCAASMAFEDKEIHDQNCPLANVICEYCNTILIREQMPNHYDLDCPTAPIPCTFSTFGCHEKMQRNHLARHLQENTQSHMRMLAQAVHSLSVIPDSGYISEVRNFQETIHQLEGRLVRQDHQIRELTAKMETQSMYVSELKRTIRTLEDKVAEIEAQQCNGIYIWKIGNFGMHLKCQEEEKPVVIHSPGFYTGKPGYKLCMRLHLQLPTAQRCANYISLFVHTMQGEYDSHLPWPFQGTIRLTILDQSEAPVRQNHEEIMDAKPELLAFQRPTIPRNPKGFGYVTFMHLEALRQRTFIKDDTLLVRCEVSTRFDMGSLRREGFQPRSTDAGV

[9] = biological target: T9, Flag-tagged TRAF2-d1 (lacking amino acids 1–233) (human) (UniProt Q12933); assay: as above
T9 sequence: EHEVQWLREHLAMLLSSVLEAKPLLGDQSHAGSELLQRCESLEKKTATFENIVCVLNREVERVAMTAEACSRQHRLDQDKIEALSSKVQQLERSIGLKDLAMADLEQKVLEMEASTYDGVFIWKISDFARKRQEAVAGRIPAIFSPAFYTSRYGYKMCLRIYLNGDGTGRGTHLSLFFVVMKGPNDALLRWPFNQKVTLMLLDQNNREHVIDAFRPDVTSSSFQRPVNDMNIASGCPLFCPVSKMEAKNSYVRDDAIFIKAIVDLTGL

[10] = biological target: T10, Flag-tagged TRAF2 (human) (UniProt Q12933); assay: as above
T10 sequence: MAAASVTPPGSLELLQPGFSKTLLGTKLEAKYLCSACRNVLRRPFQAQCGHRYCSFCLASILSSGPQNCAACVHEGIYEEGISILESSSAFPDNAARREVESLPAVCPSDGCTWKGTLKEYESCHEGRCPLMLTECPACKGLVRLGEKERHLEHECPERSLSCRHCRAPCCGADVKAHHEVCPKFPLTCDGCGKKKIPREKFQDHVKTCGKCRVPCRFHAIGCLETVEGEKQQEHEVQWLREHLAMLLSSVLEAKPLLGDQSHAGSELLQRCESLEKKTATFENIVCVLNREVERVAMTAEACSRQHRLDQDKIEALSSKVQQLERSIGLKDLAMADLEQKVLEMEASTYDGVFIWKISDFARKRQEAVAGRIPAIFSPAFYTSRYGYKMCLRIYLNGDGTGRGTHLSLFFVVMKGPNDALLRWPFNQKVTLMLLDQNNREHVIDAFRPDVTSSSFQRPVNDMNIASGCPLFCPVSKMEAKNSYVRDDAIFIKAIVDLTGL

[11] = biological target: T10, Flag-tagged TRAF2 (human); assay: co-IP; TRAFs-deficient 293T cells reconstituted with TRAF2, 3, 5 or 6, SeV-infected for the indicated times; lysates immunoprecipitated with anti-Flag antibody, Western blot

Measured: binding

HA-tagged MAVS (transfected in 293T) (from UniProt Q7Z434 1-540)
not listed: [11]
binds: all other assays above

Mitochondrial antiviral-signaling protein (MAVS), endogenous (from UniProt Q7Z434 1-540)
binds: [11]

From paper PMC5699845
